According to patent US20230312550A1, “N-(2-(4-CYANOTHIAZOLIDIN-3-YL)-2-OXOETHYL)-QUINOLINE-4-CARBOXAMIDES” (AstraZeneca AB, priority 2020, published 2023):
At least one structure is not confirmed: it was looked up by name or label, or the drawing left a doubt.

Chains of the proteins cited; added tags and fusions are not shown. Residues count along the entry.
UniProt Q12884, 39-757: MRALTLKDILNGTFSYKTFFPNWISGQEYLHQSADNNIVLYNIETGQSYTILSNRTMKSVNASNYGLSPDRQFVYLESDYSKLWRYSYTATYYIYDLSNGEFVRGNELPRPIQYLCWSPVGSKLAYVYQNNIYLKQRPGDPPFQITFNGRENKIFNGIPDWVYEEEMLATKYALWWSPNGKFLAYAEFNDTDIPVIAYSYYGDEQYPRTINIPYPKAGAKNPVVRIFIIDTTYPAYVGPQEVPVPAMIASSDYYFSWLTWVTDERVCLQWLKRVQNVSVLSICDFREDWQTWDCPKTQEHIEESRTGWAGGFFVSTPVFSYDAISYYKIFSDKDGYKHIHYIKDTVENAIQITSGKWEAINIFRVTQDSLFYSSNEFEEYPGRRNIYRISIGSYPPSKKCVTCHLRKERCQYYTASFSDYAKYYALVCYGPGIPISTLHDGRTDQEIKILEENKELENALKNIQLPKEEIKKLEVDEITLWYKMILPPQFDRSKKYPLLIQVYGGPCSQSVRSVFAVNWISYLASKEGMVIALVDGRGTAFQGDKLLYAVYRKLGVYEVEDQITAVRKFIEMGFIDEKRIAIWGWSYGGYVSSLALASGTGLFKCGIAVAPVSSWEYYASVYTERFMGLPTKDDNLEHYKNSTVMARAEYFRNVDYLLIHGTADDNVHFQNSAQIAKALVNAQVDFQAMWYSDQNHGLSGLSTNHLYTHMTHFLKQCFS

Molecular target: hFAP (M39-A757) (Homo sapiens (Human), UniProt Q12884)
Test: hFAP binding assay (surface plasmon resonance)
Settings: SPR, 20° C., single cycle kinetics

N#C[C@@H]1CSCN1C(=O)CNC(=O)c1ccnc2ccc(N3CC(COC(F)(F)F)C3)cc12 [Example 130, (R)—N-(2-(4-Cyanothiazolidin-3-yl)-2-oxoethyl)-6-(3-((trifluoromethoxy)-methyl)azetidin-1-yl)quinoline-4-carboxamide]
hFAP Binding assay k(on): 440000 M⁻¹ s⁻¹
